Assay results: patent publication US10940128B2, “Injectable melphalan compositions comprising a cyclodextrin derivative and methods of making and using the same” (CYDEX PHARMACEUTICALS, INC., priority 2009, dated 2021)
Structures can show the parent of a compound that is named as a salt. The name of at least one read-out is uncertain.

Assay: Solubility of melphalan hydrochloride and free base melphalan vs SBE6.5-β-CD concentration at pH 7.5 (Example 3, FIG. 2)
Assay type: physicochemical
Conditions: pH 7.5, 22° C., all cyclodextrin derivative concentrations above 25 mM

N[C@@H](Cc1ccc(N(CCCl)CCCl)cc1)C(=O)O [melphalan hydrochloride salt]
solubility enhancement compared to free base melphalan: significant solubility enhancement
